# According to PubChem BioAssay AID2685 (National Center for Advancing Translational Sciences (NCATS), 2010):
# This is one part of the list. The main result of the screen is listed elsewhere. These columns were measured beside it and carry no call. Compounds called inactive in the main read-out are mostly missing here. Potencies come from curve fits of mixed quality, noted in brackets.
# Assay: qHTS Assay for Lipid Storage Modulators in Drosophila S3 Cells;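 for cell number change: cells counted by Cell Tracker Red CMTPX staining in the red channel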
# Conditions: BODIPY lipid droplet fluorescence, 18-24 h; for cell number change: measured here: cell count max response, cells fed with added oleic acid
# How it was run: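 Laser-scanning cytometry quantifies lipid droplet accumulation (500–530 nm total intensity; droplet/cell object ratio) in oleic acid-fed (400 uM added) Drosophila S3 cells treated with a concentration series. 20 uM Triacsin C defined 100% inhibition.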
# [1] = measured here: cell number channel AC50, cells fed with added oleic acid
# [2] = measured here: lipid fluorescence (Fed channel) AC50, cells fed with added oleic acid
SMILES,cell number change [%],AC50 [1],AC50 [2]
COc1ccc(N(C(C)C(=O)N2CCC(Cc3ccccc3)CC2)S(C)(=O)=O)cc1 (stereo not drawn),-24.3,"4.11 µM [falling, full curve, poor fit]","4.61 µM [falling, full curve, poor fit]"
CCCCc1cc(=O)oc2cc(C)cc(OCC(=O)NCc3cccnc3)c12,-8.02,,"29.1 µM [falling, single point]"
O=C(Nc1ccc(Br)c(C(F)(F)F)c1)c1ccc(C(F)(F)F)cc1,-46.6,,
CC(C)(C)c1ccc(C(=O)Nc2cccc(-n3cnnn3)c2)cc1,-21.2,,"29.1 µM [falling, single point]"
CC1CCN(C(c2ccc(N(C)C)cc2)c2nnnn2Cc2ccc(F)cc2)CC1 (stereo not drawn),2.52,,"0.103 µM [rising, full curve, poor fit]"
CCN1C(=NCc2ccco2)N[C@@H](c2cccc(C(F)(F)F)c2)C(C(=O)OC)=C1C,9.59,,
COc1cccc(N2CCN(CC(=O)c3c(C)[nH]c4ccccc34)CC2)c1,,"1.3 µM [rising, full curve]","2.06 µM [rising, partial curve]"
O=C(COc1ccccc1)Nc1cccc(-c2nc3cc4ccccc4cc3[nH]2)c1,13.2,"6.51 µM [rising, single point]","6.51 µM [rising, single point]"
COCc1[nH]c(=S)[nH]c(=O)c1C,-55.1,"29.1 µM [falling, single point]","29.1 µM [falling, single point]"
COc1ccccc1N(CC(=O)N(c1ccccc1)C(C)C)S(=O)(=O)c1cccs1,61.3,,
Cc1ccc(N=C2C(=O)Nc3ccccc32)cc1,37.5,"0.58 µM [rising, full curve, poor fit]",
N/C(CN1CCCC1=O)=N\OC(=O)c1ccccc1Cl,,,"5.8 µM [falling, full curve]"
NS(=O)(=O)c1cccc(NC(=O)CCS(=O)(=O)c2ccc(Cl)cc2)c1,10.5,,"0.411 µM [falling, partial curve, poor fit]"
CC(C)CN(C(=O)CN1C(=O)NC(c2ccccc2)(c2ccccc2)C1=O)C1CCS(=O)(=O)C1 (stereo not drawn),-23.8,,"14.6 µM [falling, single point]"
CCOc1ccc(-c2nc(C#N)c(NCC(C)C)o2)cc1,-18.4,,
CCOC(=O)c1sc(NC(=O)CN2CC(C)OC(C)C2)nc1C (stereo not drawn),-4.23,,
CC1CCc2sc(C(=O)NCC(C)(C)N3CCOCC3)cc2C1 (stereo not drawn),22.5,,
N#CCCN(C(=O)COC(=O)C1=COCCO1)c1ccc(F)cc1,-22.8,,"0.146 µM [falling, full curve]"
CN(C)CCCNc1oc(-c2ccccc2)nc1C#N,,,"0.731 µM [rising, single point]"
COc1ccc(OC)c(NC(=O)CSc2nc(=O)n(Cc3ccccn3)c3c2CCC3)c1,13.3,"2.31 µM [rising, partial curve]","0.82 µM [rising, full curve]"
CN(C)c1ccc(-c2ccccc2)nn1,94.3,"6.51 µM [falling, single point]","6.51 µM [rising, single point]"

SMILES,cell number change [%],AC50 [1],AC50 [2]
O=C(CSc1nc2[nH]c(=O)cc(O)c2s1)Nc1cc(Cl)cc(Cl)c1,10.4,,"6.51 µM [rising, single point]"
O=C(CCn1c(=S)oc2ccccc21)NC1CCCCC1,14.1,,"0.259 µM [falling, full curve, poor fit]"
CCOc1cccc(NC(=O)C2CC(=O)N(C)C(=Nc3ccccc3)S2)c1 (stereo not drawn),-15,,"6.51 µM [rising, partial curve]"
CC(C)CCN1CN(S(=O)(=O)c2cccs2)c2nc3ccccc3nc21,10.1,,"4.61 µM [rising, partial curve]"
CCC(Oc1ccccc1)C(=O)N1CCN(S(=O)(=O)c2ccccc2)CC1 (stereo not drawn),9.21,,"1.64 µM [rising, full curve]"
Cc1ccc(S(=O)(=O)C2(C(=O)NC3CCCCC3)CC2)cc1,-11.4,,
CCCn1c(CN2CCN(C(=O)OCC)CC2)nc2cc([N+](=O)[O-])ccc21,-6.38,"0.00517 µM [falling, full curve]",
CC1CCCC(NC(=O)CCNC(=O)c2ccccc2Cl)C1C (stereo not drawn),3,,
Cc1ccc(N(C)C(=O)CCNC(=O)Cn2cnc3ccccc3c2=O)cc1C,12.8,,"3.26 µM [falling, full curve, poor fit]"
O=C(NC(=O)c1csnn1)Nc1ccccc1Cl,-6.15,,
CCCCN1C(Nc2ccccc2)=NC[C@@H]1Cc1ccccc1,0.328,,"29.1 µM [falling, single point]"
O=C(Cn1c(=O)c2cccn2c2ccccc21)NCc1cccc(F)c1,-16.1,,"6.51 µM [rising, single point]"
O=C(NC1CC1)c1cccc(NC(=O)c2cn3ccccc3n2)c1,-8.08,,"4.61 µM [falling, single point]"
COc1ccc(C)cc1S(=O)(=O)Nc1ccc(-n2c(C)nc3ccccc3c2=O)cc1,-6.3,,
CC(C)CN(C(=O)CCc1ccccc1)c1c(N)n(CC(C)C)c(=O)[nH]c1=O,13.2,,"14.6 µM [rising, single point]"
Cc1ccc(N(CC(=O)NCC2CCCO2)S(=O)(=O)c2ccccc2)c(C)c1 (stereo not drawn),-7.62,,"29.1 µM [falling, single point]"
CN(Cc1cccc(Cl)c1Cl)C(=O)c1cccc(S(=O)(=O)N2CCN(Cc3ccccc3)CC2)c1,-49.7,"20.6 µM [falling, partial curve]","0.00461 µM [falling, full curve, poor fit]"
O=C(COc1cccnc1[N+](=O)[O-])NC1CCS(=O)(=O)C1 (stereo not drawn),-52.8,"29.1 µM [falling, single point]",
COc1cc(CC(=O)Nc2nc(C)cs2)cc(OC)c1OC,0.415,,"0.103 µM [rising, full curve]"
COC(=O)c1[nH]c2cc(OC)ccc2c1NC(=O)CCN1CCCCC1,0.671,"1.3 µM [falling, full curve]",
O=C(Nc1nnc(SCCC2OCCO2)s1)C1CC(=O)N(c2ccc(F)cc2)C1 (stereo not drawn),-17.3,,

SMILES,cell number change [%],AC50 [1],AC50 [2]
Cc1ccccc1NC(=O)Cc1nc(CSc2nnc(-c3ccc4c(c3)OCO4)o2)cs1,6.88,,"1.46 µM [rising, full curve]"
CCOc1ccc2nc(NC(=O)C3=NNC(=O)CC3)sc2c1,35.2,"6.51 µM [rising, single point]","5.8 µM [rising, full curve]"
Fc1cccc(/C=N/N=C/c2cccc(F)c2)c1,,,"0.58 µM [rising, single point]"
CC1Nc2ncnc(N3CCN(c4ccccc4)CC3)c2N(Cc2ccc(Br)cc2)C1=O (stereo not drawn),-37.6,"29.1 µM [falling, single point]","0.13 µM [falling, full curve, poor fit]"
Cc1cc(NC(=O)C2CC(=O)N(c3ccccc3C)C2)no1 (stereo not drawn),11.5,,
Cc1cc(C(=O)N/N=C/c2cccc3ccccc23)c(C)o1,13.3,,"1.16 µM [falling, single point]"
CCOC(=O)N1CCN(S(=O)(=O)CCNC(=O)c2ccc(F)cc2)CC1,-16.9,,"0.58 µM [falling, full curve]"
Cc1sc(N(C(=O)CCc2ccccc2)c2ccc(C(=O)O)cc2)nc1-c1ccccc1,-0.237,,"0.731 µM [rising, single point]"
CC1Cc2cc(/C(O)=C3/C(=O)C(=O)N(CCCn4ccnc4)C3c3cccc([N+](=O)[O-])c3)ccc2O1 (stereo not drawn),-8.02,,
CC(=O)/C(=C/c1ccc(N(C)C)cc1)C(=O)c1ccccc1,-26.9,"0.411 µM [falling, full curve, poor fit]","0.58 µM [falling, full curve, poor fit]"
Nc1ccn(CC(=O)NCCCc2ccccc2)c(=O)n1,-7.23,,"0.291 µM [rising, partial curve]"
CC(C)(C)NC(=O)CCC1COc2ccccc2O1 (stereo not drawn),-13.4,"0.00517 µM [falling, full curve, poor fit]",
COc1ccc(/C(C)=N/NC(=O)c2ccccc2N)cc1,42,,
COc1ccc(CC(=O)Nc2ccc(S(=O)(=O)N3CCCCC3)cc2)cc1OC,-35.2,"18.4 µM [falling, partial curve, poor fit]","0.58 µM [rising, single point]"
O=C(COc1ccccc1Cl)c1ccc[nH]1,13,,"0.0651 µM [rising, full curve, poor fit]"
C/C(=N\NC(=O)c1ccco1)c1ccc(NC(=O)C(F)(F)F)cc1,-8.01,,"6.51 µM [falling, single point]"
CC(C)(C)OC(=O)N1CCC(Cc2cc(-c3ccc(Cl)cc3)no2)(C(=O)O)CC1,12.9,,"20.6 µM [rising, single point]"
COc1ccccc1CNC(=O)C(C)Oc1ccccc1 (stereo not drawn),-28.8,,"16.4 µM [falling, single point]"
CCCn1c(=O)c(C(=O)Nc2cc(C)ccn2)c(O)c2ccccc21,15.3,,
O=C(NCC1CCCCC1)C1(CC2CC(c3cccc(Br)c3)=NO2)CCNCC1 (stereo not drawn),5.18,,"0.326 µM [falling, partial curve, poor fit]"
CC(C)C(NS(=O)(=O)c1cccc2nsnc12)C(=O)Nc1nc2ccc(Cl)cc2s1 (stereo not drawn),-11.7,,"16.4 µM [falling, partial curve, poor fit]"
